# Reference: PubChem BioAssay AID504834 (National Center for Advancing Translational Sciences (NCATS), 2011)
# In all, about 320,000 compounds went through this assay and about 22,000 (6.9%) were called active. Inconclusive results, whose numbers are uncertain, are shown with a selection of clear calls. Calls come from the whole dose curve; as a rule, active = well fitted inhibition curve with a large enough effect; inconclusive = small, poorly fitted or top-dose-only effect, or another doubt; inactive = no such curve, though single readings can be large or run the other way. Potencies beside an inconclusive call are fits to weak or partial responses and may not hold up.
# Test: Primary qHTS for delayed death inhibitors of the malarial parasite plastid, 96 hour incubation
# Conditions: P. falciparum luciferase reporter growth; series mostly up to 28.7 µM; activity change, negative = inhibition: at the top concentration
# In short: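 Luminescence readout: decreased luciferase signal marks inhibited growth of reporter-expressing P. falciparum in infected red cells (2% hematocrit, 0.05% parasitemia final), exposed to compound two generations (96 h, 37 C, 5% CO2).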
# % is set by controls: 0 for no effect and ±100 for the full control effect; potency is the fitted concentration of half-maximal effect.
SMILES,Potency,"activity change, negative = inhibition"
CC(C)/C=C1\CCCCC1N(C)C(=O)NC(C)C (stereo not given),"inconclusive: 13.1 µM [inhibitor, partial curve, poor fit]",–
CCOC(=O)C1CCN(c2nc(N)c3c(N)nc(SCC(=O)O)cc3c2C#N)CC1,active: 2.62 µM,–
O=C(Cn1ccc2ccccc2c1=O)Nc1ccc2c(c1)OCO2,"inconclusive: 1.04 µM [inhibitor, single point]",–
CC(=O)N/N=C/c1c(C)[nH]n(-c2ccccc2)c1=O,–,inactive: 44.2%
COc1cc(OC)c(NC(=O)c2sc3ncn(CC(=O)N4CCOCC4)c(=O)c3c2C)cc1Cl,"inconclusive: 18.5 µM [inhibitor, single point]",–
CC1CCN(C(=O)Cn2c(=O)n(-c3ccc(F)cc3)c(=O)c3sccc32)CC1,"inconclusive: 14.7 µM [inhibitor, partial curve, poor fit]",–
Cc1ccc(N(CC(=O)NC2CC2)S(=O)(=O)c2ccccc2)c(C)c1,–,inactive: 8.92%
Cc1ccc(-c2nnc(-c3ccccc3S(=O)(=O)Cc3ccc(Cl)cc3)o2)cc1,"inconclusive: 0.928 µM [inhibitor, partial curve, poor fit]",–
Cc1ccc(NC(=O)C2CCCN2C(=O)OC(C)(C)C)cc1C (stereo not given),"inconclusive: 10.4 µM [inhibitor, single point]",–
O=C(Cc1ccccc1)n1nc(-c2ccccc2)nc1NCc1ccco1,"inconclusive: 18.5 µM [inhibitor, single point]",–
O=C(NCCCNC(=O)c1cnccn1)c1ccc(Cl)c(Cl)c1,–,inactive: 2.61%
CCCCn1c(SCC(=O)N(C)C)nnc1-c1ccncc1,–,inactive: 0%
O=C(Nc1nc(SCc2ccc(F)cc2)ns1)c1ccco1,"inconclusive: 18.5 µM [inhibitor, single point]",–
Cc1ccc(CCNCc2c(C(=O)O)c(C)n(-c3ccccc3)c2C)cc1,"inconclusive: 18.5 µM [inhibitor, single point]",–
O=C(Nc1ccc2c(c1)C(=O)NC2=O)c1cccc(Cl)c1,–,inactive: 76.1%
CC(C)C[C@H](NC(=O)c1nc[nH]c1C(=O)N1CCC(C)CC1)C(=O)OC(C)(C)C,"inconclusive: 18.5 µM [inhibitor, single point]",–
COc1ccc(OC)c2sc(N(CCN(C)C)C(=O)/C=C/c3cccs3)nc12,"inconclusive: 18.5 µM [inhibitor, single point]",–
O=C(Cc1cn2ccsc2n1)Nc1ccccn1,"inconclusive: 18.5 µM [inhibitor, single point]",–

SMILES,Potency,"activity change, negative = inhibition"
Cn1c(SCC2CCCO2)nnc1-c1ccncc1 (stereo not given),–,inactive: -2.52%
COc1ccc(C(=O)NNC(=O)CCC(=O)Nc2cc(C)on2)cc1,–,inactive: 16.8%
COC(=O)c1cc(S(=O)(=O)NCCCN2CCCC2=O)cn1C,–,inactive: 1.87%
Cc1ccc(S(=O)(=O)N(C)c2ccc(OCC(=O)NCC3(N(C)C)CCCCC3)cc2)cc1,active: 9.28 µM,–
CC(C)(C)c1ccc(/C=N/NC(=S)NCc2ccccc2)cc1,–,inactive: 0%
O=c1ccc(-c2ccc(S(=O)(=O)NCC3CCN(Cc4ccccc4F)CC3)s2)n[nH]1,active: 2.94 µM,–
Cc1[nH]c2ccccc2c1/C=N\NC(=O)CNc1ccc2c(c1)OCO2,–,inactive: -10.5%
Cc1ccnc(NC(=O)CCC(=O)N(CC(=O)NCc2ccc(F)cc2)c2cccc(F)c2)c1,–,inactive: 32.4%
COc1ccc2c(c1)CC(=O)NC=C2,"inconclusive: 18.5 µM [inhibitor, single point]",–
CC(CC(=O)Nc1nccs1)c1ccccc1 (stereo not given),"inconclusive: 16.5 µM [inhibitor, single point]",–
Cc1ccc(S(=O)(=O)n2nc(-n3c(C)ccc3C)c3c(F)cccc32)c2ccccc12,"inconclusive: 9.28 µM [inhibitor, partial curve]",–
Cn1nc([N+](=O)[O-])nc1Sc1nnc(-c2ccccc2)o1,"inconclusive: 2.94 µM [inhibitor, full curve, poor fit]",–
CCOC(=O)c1[nH]c(C)c(/C(O)=C2\C(=O)C(=O)N(CCCN3CCOCC3)C2c2cccs2)c1C (stereo not given),"inconclusive: 2.62 µM [inhibitor, partial curve, poor fit]",–
COc1ccc(/C=C2\SC(=S)N(CCCC(=O)Nc3ccccc3C(=O)O)C2=O)cc1OC,–,inactive: 9.2%
Cc1nc(OCC(=O)c2ccc(Cl)cc2)c(C#N)c2c1COC(C)(C)C2,active: 11.7 µM,–
CCOC(=O)C1C(=O)NC(N2CCN(c3ccccc3)CC2)=NC1c1ccccc1 (stereo not given),"inconclusive: 9.28 µM [inhibitor, single point]",–
CC(=O)NC12CC3CC(C1)CC(C(=O)OCC(=O)Nc1ncc(Cl)cc1Cl)(C3)C2,active: 11.7 µM,–

# Of the compounds above, 3 have a tert-butyl group.
SMILES,Potency,"activity change, negative = inhibition"
Cc1ccc(NC(=O)C2CCCN2C(=O)OC(C)(C)C)cc1C (stereo not given),"inconclusive: 10.4 µM [inhibitor, single point]",–
CC(C)C[C@H](NC(=O)c1nc[nH]c1C(=O)N1CCC(C)CC1)C(=O)OC(C)(C)C,"inconclusive: 18.5 µM [inhibitor, single point]",–
CC(C)(C)c1ccc(/C=N/NC(=S)NCc2ccccc2)cc1,–,inactive: 0%
